Earlier results in patent publication US20040234592A1, “Dermatological formulations” (priority 2001, published 2004).
At least one compound was matched to its structure with a doubt left.

Test system: pro-collagen I
Conditions: cited from earlier work

C[C@H]1C[C@H]2[C@@H]3CCC4=CC(=O)C=C[C@]4(C)[C@@]3(F)[C@@H](O)C[C@]2(C)[C@@]1(O)C(=O)CO [betamethasone]
decrease of pro-collagen production (after a 14 day corticosteroid-free period): 50% | reduction in expression of pro-collagen I (decrease from base-line) (three days of topical treatment): around 70%
